## Library screening results

Data taken from ChEMBL document CHEMBL3988442, “University of Dundee, Small-Polar-MMV Screening Library” (2021).

Mtb growth Cornell: 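Whole-cell assay for inhibitors of Mycobacterium tuberculosis growth, labelled Cornell in the record; the read-out is not stated. The concentration is filed as 10 mM, unlikely as a test dose, so the dose is not known. Higher means stronger inhibition (inferred from two other growth screens of the library). Size under these conditions: about 53,000 compounds, about 900 of them at 50% or above in at least one test.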
Mtb heat-shock: 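Assay on Mycobacterium tuberculosis, filed only as a heat shock assay from Cornell; the read-out is not stated. The concentration is filed as 10 mM, unlikely as a test dose, so the dose is not known. Direction is inferred from retests: higher values go with stronger inhibition. Size under these conditions: about 69,000 compounds, about 930 of them at 50% or above in at least one test.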

Values are the deposited “Percent Effect”, in %.
The record does not define 0% and 100%; most values in the screen are far below 50% and negative numbers occur (in some assays of this library far below -100).
The compounds are a random part of those screened.
A dash means the value is not listed here; it may have been measured.

- CCn1ncc(-c2cc(C(F)F)nc3sc(C(N)=O)c(N)c23)c1C | Mtb growth Cornell: -17.33%; Mtb heat-shock: -3.272%
- CN1CCN(CC(NCc2ccc(F)c(F)c2)c2ccccc2)CC1 (stereo not given) | Mtb growth Cornell: -2.4%; Mtb heat-shock: -18.28%
- CCOc1cc(CN(C)CCC#N)ccc1OC(F)F | Mtb growth Cornell: -4.03%; Mtb heat-shock: -23.33%
- CN(Cc1cccc(C(N)=O)c1)Cc1nc2c(cnn2C)c(=O)[nH]1 | Mtb growth Cornell: -66.63%; Mtb heat-shock: -20.46%
- CCOc1ccc(CC(CNC(=O)c2ccc(C)s2)C(N)=O)cc1 (stereo not given) | Mtb growth Cornell: -66.46%; Mtb heat-shock: 18.44%
- O=C(O)C1(Cc2cc(-c3cccc(F)c3)no2)CCOCC1 | Mtb growth Cornell: 9.661%; Mtb heat-shock: 5.448%
- [H][C@@]12CNC[C@]1([H])N(C(=O)c1ccco1)CCO2 | Mtb growth Cornell: 17.28%; Mtb heat-shock: -0.2313%
- Cn1ccnc1CC1CCCN(C(=O)NCCOc2cccnc2)C1 (stereo not given) | Mtb growth Cornell: 1.732%; Mtb heat-shock: -8.778%
- COCC(NC(=O)NCc1sc(C)nc1C)c1ccco1 (stereo not given) | Mtb heat-shock: -20.77%
- Cc1nonc1C1CCCN1C(=O)c1cn2ccsc2n1 (stereo not given) | Mtb growth Cornell: 7.354%; Mtb heat-shock: -28.42%
- O=C(O)c1ccn(COc2c(Cl)cccc2Cl)n1 | Mtb growth Cornell: 22.93%; Mtb heat-shock: -21.02%
- Cc1nc(C)n(CC2CCCN2Cc2nc3ccccc3o2)n1 (stereo not given) | Mtb growth Cornell: 17.8%; Mtb heat-shock: 0.5798%
- [H][C@]12CC[C@]([H])(CN(C3Cc4ccccc4C3)C1)N(Cc1nc(C)no1)C2 | Mtb heat-shock: 1.61%
- CN1C[C@@H](C(=O)N(C)C)[C@@]2(CCc3ccccc3C(=O)N2)C1.Cl | Mtb growth Cornell: 19.81%; Mtb heat-shock: 7.654%
- CCCOCC(=O)N1CCCC(c2nnc(CN3CCCCC3)n2C)C1 (stereo not given) | Mtb heat-shock: -2.522%
- CN1CCOC(C(=O)Nc2ccc3c(c2)nc(C(C)(C)C)n3C)C1 (stereo not given) | Mtb growth Cornell: 23.88%; Mtb heat-shock: 3.551%
- Cc1cccc(-c2noc(CN3CC(n4cc(C)cn4)C3)n2)c1 | Mtb growth Cornell: 51.38%; Mtb heat-shock: 27.95%
- O=C(CCc1ccc(Br)cc1F)NS(=O)(=O)c1ccc2c(c1)OCCO2 | Mtb heat-shock: 12.84%
- O=C(O)C(F)(F)F.[H][C@]12CCC[C@@]1(COc1ccccn1)CN(C(=O)N(C)C)C2 | Mtb growth Cornell: -9.828%; Mtb heat-shock: 0.4631%
- [H][C@]12CC[C@]([H])(CN(C(=O)c3ccccn3)C1)N(C(=O)CCc1ccsc1)C2 | Mtb growth Cornell: 4.914%; Mtb heat-shock: -14.74%
- CS(=O)(=O)c1cccc(S(=O)(=O)NCCCN2CCNC(=O)C2)c1 | Mtb growth Cornell: 21.4%; Mtb heat-shock: -12.19%
- CC(C)S(=O)(=O)N1CCC(c2[nH]ncc2S(C)(=O)=O)C1 (stereo not given) | Mtb growth Cornell: -18.02%; Mtb heat-shock: 4.84%
- O=C(NC(c1ccccc1)c1cccnc1)C1CC1 (stereo not given) | Mtb growth Cornell: 19.38%; Mtb heat-shock: 14.15%
- O=C(CCc1nccs1)N1CCC(N2CCNC2=O)CC1 | Mtb growth Cornell: -3.94%; Mtb heat-shock: -12.22%
- CCC1CCCN(Cc2nc3ccccc3c(=O)[nH]2)C1 (stereo not given) | Mtb growth Cornell: 25.05%; Mtb heat-shock: -5.386%
- COC(=O)C1CCN(C(=O)c2cccc(NS(C)(=O)=O)c2C)CC1 | Mtb growth Cornell: 9.543%; Mtb heat-shock: -10.66%
- COc1ncc(-c2nccn2-c2ccccc2CN2CCOCC2)cn1 | Mtb growth Cornell: -5.43%; Mtb heat-shock: 2.942%
- c1ccc(CN2CCOC3(CCCN(c4nccs4)C3)C2)cc1 (stereo not given) | Mtb growth Cornell: 23.97%; Mtb heat-shock: -7.021%
- CCS(=O)(=O)N1CCC(c2nn(CCN(C)C)c3ncccc23)C1 (stereo not given) | Mtb growth Cornell: 0.4552%; Mtb heat-shock: -11.59%
- CCn1cc(CNCC(c2ccc(Cl)cc2)n2cccn2)cn1 (stereo not given) | Mtb growth Cornell: 32.03%; Mtb heat-shock: 6.652%
- CC(C)(C)c1cc2ncn(CCCN3CCCCC3CO)c(=O)c2s1 (stereo not given) | Mtb growth Cornell: 27.1%; Mtb heat-shock: -1.85%
- CC(O)CN1CCN(C(=O)c2sccc2C2CC2)CC1 (stereo not given) | Mtb growth Cornell: -6.063%; Mtb heat-shock: -5.292%
- Fc1cnc(N2CCCC3(CCN(Cc4nccs4)C3)C2)nc1 (stereo not given) | Mtb growth Cornell: -32.47%; Mtb heat-shock: -20.14%
- CNC(=O)Cc1ccc(NC(=O)NCc2nc(C)sc2C)cc1 | Mtb growth Cornell: -19.77%; Mtb heat-shock: -5.953%
- Nc1nnc(CCCNC(=O)c2ccc(C3CCCNC3)cc2)s1 (stereo not given) | Mtb growth Cornell: 1.242%; Mtb heat-shock: -31.39%
- CCNC(=O)C1(Cc2cc(-c3ccccc3)no2)CCCN(C(C)=O)C1 (stereo not given) | Mtb growth Cornell: -13.59%; Mtb heat-shock: -7.314%
- CC(C)CCC(C)NC(=O)c1ccc(OCC(N)=O)cc1 (stereo not given) | Mtb heat-shock: -2.28%

Some entries from above, unchanged:

| SMILES | Mtb growth Cornell | Mtb heat-shock |
|---|---|---|
| `CNC(=O)Cc1ccc(NC(=O)NCc2nc(C)sc2C)cc1` | -19.77% | -5.953% |
| `CN1C[C@@H](C(=O)N(C)C)[C@@]2(CCc3ccccc3C(=O)N2)C1.Cl` | 19.81% | 7.654% |
| `CN(Cc1cccc(C(N)=O)c1)Cc1nc2c(cnn2C)c(=O)[nH]1` | -66.63% | -20.46% |
| `CCCOCC(=O)N1CCCC(c2nnc(CN3CCCCC3)n2C)C1` (stereo not given) | - | -2.522% |